PubChem BioAssay AID1053208 – Peter MacCallum Cancer Centre, 2014
Test: 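Find knock-downs that sensitise mouse osteosarcoma cells to doxorubicin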 (primary screen). System: mouse osteosarcoma cells, early-passage culture from an engineered mouse model of fibroblastic bone tumour. Reagents: siRNA pool against mouse genes, 40 nM. Time to read-out: about 120 h (48 h before drug, then 72 h with drug). Challenge: doxorubicin 100 nM for 72 h, roughly 30-40% inhibitory dose. Detection: 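Viability read as ATP luminescence after 72 h of 100 nM doxorubicin or none, duplicate wells averaged, scaled to non-targeting siRNA, then expressed as robust z-scores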. Reading the numbers: viability z-score with doxorubicin: higher = more viable cells under doxorubicin; viability z-score without drug: higher = more viable cells with knock-down alone. Active means: 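a pool counts as active when its viability z-score with doxorubicin is -2 or below and its z-score without drug lies between -2 and 2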.
This is one part, drawn at random, of about 17,000 reagents. Over the whole deposit, 788 (4.7%) got an active call. 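Calls rest on z-score classes alone; an extra cut-off of viability at most 70% of control was not applied to them.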 Not all columns of the deposit are shown.

target gene	combined z-score class	viability z-score with doxorubicin	viability z-score without drug	Call
Mboat1 (membrane bound O-acyltransferase domain containing 1)	no change with or without drug	0.67	0.67	inactive
Rhot2 (ras homolog family member T2)	no change with or without drug	1.91	0.51	inactive
Pate4 (prostate and testis expressed 4)	no change with or without drug	-0.45	-1.52	inactive
Klhl15 (kelch-like 15)	no change with or without drug	0.22	0.84	inactive
Catsper1 (cation channel, sperm associated 1)	no change with or without drug	0.9	1.01	inactive
Etfa (electron transferring flavoprotein, alpha polypeptide)	no change with or without drug	-0.22	0.51	inactive
Large1 (LARGE xylosyl- and glucuronyltransferase 1)	no change with or without drug	0.79	0.17	inactive
Sptlc3 (serine palmitoyltransferase, long chain base subunit 3)	no change with or without drug	-0.34	-0.67	inactive
Klf3 (Kruppel-like transcription factor 3 (basic))	no change with or without drug	0.45	1.18	inactive
Lamtor2 (late endosomal/lysosomal adaptor, MAPK and MTOR activator 2)	no change with or without drug	-0.22	-1.85	inactive
Pex11b (peroxisomal biogenesis factor 11 beta)	no change with or without drug	1.57	1.18	inactive
Mtfr1 (mitochondrial fission regulator 1)	no change with or without drug	0.67	1.69	inactive
Eif3g (eukaryotic translation initiation factor 3, subunit G)	low cell count with and without drug	-4.05	-3.54	inactive
Wdr37 (WD repeat domain 37)	no change with or without drug	-0.67	0.17	inactive
Tulp3 (TUB like protein 3)	no change with or without drug	-0.79	0	inactive
Vmn1r49 (vomeronasal 1, receptor 49)	no change with or without drug	0	0.51	inactive
Cst13 (cystatin 13)	no change with or without drug	-0.45	0.17	inactive
Tifab	no change with or without drug	0	-1.18	inactive
Hlf (HLF transcription factor, PAR bZIP family)	no change with or without drug	-0.45	0.17	inactive
P2rx5 (purinergic receptor P2X, ligand-gated ion channel, 5)	no change with or without drug	-0.11	-0.51	inactive
Pabpc2 (poly(A) binding protein, cytoplasmic 2)	no change with or without drug	-1.12	-0.51	inactive
Irf2bpl (interferon regulatory factor 2 binding protein-like)	high cell count without drug only	1.69	2.19	inactive
Or8d2b (olfactory receptor family 8 subfamily D member 2D)	no change with or without drug	-0.67	-0.17	inactive
Anapc4 (anaphase promoting complex subunit 4)	low cell count with doxorubicin only	-2.02	-1.35	active
Asf1a (anti-silencing function 1A histone chaperone)	no change with or without drug	0.45	0.51	inactive
Sidt1 (SID1 transmembrane family, member 1)	high cell count with doxorubicin only	2.02	0.84	inactive
Unc93a (unc-93 homolog A)	no change with or without drug	-1.35	-1.01	inactive
Fam13c (family with sequence similarity 13, member C)	low cell count with doxorubicin only	-2.92	0.17	active
Esyt1 (extended synaptotagmin-like protein 1)	no change with or without drug	-0.11	1.35	inactive
Cgas (cyclic GMP-AMP synthase)	no change with or without drug	-0.9	0.34	inactive
Rbfox2 (RNA binding protein, fox-1 homolog (C. elegans) 2)	no change with or without drug	0.9	-0.51	inactive
Tcim (transcriptional and immune response regulator)	no change with or without drug	0.11	-0.67	inactive
Or8k33 (olfactory receptor family 8 subfamily K member 33)	no change with or without drug	0.45	0.17	inactive
Cd37 (CD37 antigen)	no change with or without drug	1.01	-0.67	inactive

Records above called active (2):
target gene	combined z-score class	viability z-score with doxorubicin	viability z-score without drug	Call
Anapc4 (anaphase promoting complex subunit 4)	low cell count with doxorubicin only	-2.02	-1.35	active
Fam13c (family with sequence similarity 13, member C)	low cell count with doxorubicin only	-2.92	0.17	active
